The record followed here is article PMC10837360.

Protein sequences, listed by entry. Tags and fused reporters are not part of them. Lines headed by an entry give the natural chain unless they say otherwise; changes in a name come on top.
UniProt O00425: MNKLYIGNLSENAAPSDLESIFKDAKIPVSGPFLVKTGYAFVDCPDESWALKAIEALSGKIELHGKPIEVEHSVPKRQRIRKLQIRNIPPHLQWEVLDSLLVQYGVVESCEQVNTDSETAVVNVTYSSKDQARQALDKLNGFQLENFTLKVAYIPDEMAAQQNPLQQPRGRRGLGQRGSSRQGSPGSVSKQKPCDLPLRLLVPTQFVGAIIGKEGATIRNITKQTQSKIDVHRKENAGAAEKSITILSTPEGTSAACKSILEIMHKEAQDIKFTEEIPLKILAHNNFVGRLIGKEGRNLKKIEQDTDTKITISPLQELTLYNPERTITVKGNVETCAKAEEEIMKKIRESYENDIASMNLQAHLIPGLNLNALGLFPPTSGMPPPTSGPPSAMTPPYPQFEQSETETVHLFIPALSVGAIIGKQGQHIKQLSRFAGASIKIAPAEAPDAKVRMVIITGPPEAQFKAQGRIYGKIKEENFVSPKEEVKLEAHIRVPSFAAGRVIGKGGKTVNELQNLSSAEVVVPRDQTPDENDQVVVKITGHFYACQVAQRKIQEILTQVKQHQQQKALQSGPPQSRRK
UniProt Q9Y6M1: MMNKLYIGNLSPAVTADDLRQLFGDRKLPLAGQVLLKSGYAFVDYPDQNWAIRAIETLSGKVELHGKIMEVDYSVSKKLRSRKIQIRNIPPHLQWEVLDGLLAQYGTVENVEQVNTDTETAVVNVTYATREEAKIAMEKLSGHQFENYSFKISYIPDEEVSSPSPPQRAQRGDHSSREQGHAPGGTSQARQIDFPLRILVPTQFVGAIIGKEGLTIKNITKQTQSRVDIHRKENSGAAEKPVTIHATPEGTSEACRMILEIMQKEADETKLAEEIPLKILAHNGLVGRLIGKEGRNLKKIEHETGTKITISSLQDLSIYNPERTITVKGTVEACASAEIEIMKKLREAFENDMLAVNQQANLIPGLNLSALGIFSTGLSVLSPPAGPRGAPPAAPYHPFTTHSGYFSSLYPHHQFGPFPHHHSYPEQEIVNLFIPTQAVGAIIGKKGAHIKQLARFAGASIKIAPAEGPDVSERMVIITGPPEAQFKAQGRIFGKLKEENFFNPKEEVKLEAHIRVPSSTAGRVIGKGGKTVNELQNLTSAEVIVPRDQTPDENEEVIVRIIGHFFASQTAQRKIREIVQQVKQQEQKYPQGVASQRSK

Where a chain is given by its changes, count along the chain named. No constants are given. Whether binding was seen depends on the method and setting. For some of these results: Binding seen in cells or lysates may run through a third protein. Some binding calls cover weakened binding; strength is not graded here. For some of these results: Where a sequence is shown, tags or fusion partners need not be part of it.

Test [1] deals with T1, GST-tagged SLC27A5 (human) (UniProt Q9Y2P5).
T1 sequence: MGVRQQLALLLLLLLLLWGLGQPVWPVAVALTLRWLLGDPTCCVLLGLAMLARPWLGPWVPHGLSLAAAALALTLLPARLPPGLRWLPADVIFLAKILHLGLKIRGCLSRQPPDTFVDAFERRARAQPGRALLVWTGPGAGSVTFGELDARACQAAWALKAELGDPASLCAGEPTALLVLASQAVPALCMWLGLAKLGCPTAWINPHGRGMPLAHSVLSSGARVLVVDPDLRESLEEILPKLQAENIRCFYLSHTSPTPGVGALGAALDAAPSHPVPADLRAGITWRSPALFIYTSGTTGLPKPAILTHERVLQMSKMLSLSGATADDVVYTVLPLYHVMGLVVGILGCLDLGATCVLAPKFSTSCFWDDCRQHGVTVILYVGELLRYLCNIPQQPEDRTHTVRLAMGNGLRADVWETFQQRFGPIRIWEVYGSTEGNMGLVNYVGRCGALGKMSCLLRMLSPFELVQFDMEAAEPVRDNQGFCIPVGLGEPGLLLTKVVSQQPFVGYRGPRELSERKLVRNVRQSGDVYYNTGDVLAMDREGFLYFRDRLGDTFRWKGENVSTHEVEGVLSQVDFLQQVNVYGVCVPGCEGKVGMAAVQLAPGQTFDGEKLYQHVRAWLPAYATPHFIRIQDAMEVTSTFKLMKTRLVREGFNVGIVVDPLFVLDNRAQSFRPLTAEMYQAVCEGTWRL
In words: pull-down; GST pull-down: purified GST-SLC27A5 and 6xHis-IGF2BP3 incubated with glutathione agarose beads for 3 h; wash buffer 137 mM NaCl, 2.7 mM KCl, 10 mM Na2HPO4, 2 mM KH2PO4, 0.5% Triton X-100; immunoblot; both purified.

For test [2], the target named is T2, SLC27A5 in HepG2 cells (human (endogenous in HepG2)) (UniProt Q9Y2P5).
T2 sequence: T1 sequence
The test is described as follows: co-IP; IP and WB in HepG2 cells; RIPA lysate, magnetic beads, overnight at 4 °C.

The target in test [3] is T3, Flag-SLC27A5 (solute carrier family 27 member 5, 3xFlag-tagged) (human) (UniProt Q9Y2P5).
T3 sequence: T1 sequence
The test is described as follows: co-IP; PLC/PRF/5 cells transfected with Flag-SLC27A5 and Myc-IGF2BP3 or their truncated forms; IP with anti-Myc or anti-Flag, IgG as control; RIPA lysate, magnetic beads, overnight at 4 °C.

Test [4] addresses T4, SLC27A5 (co-IP with IGF2BP2, data not shown) (human) (UniProt Q9Y2P5).
T4 sequence: T1 sequence
In words: co-IP; data not shown; cells and constructs not told.

The target in test [5] is T5, SLC27A5 ΔN (aa 78-690) (human) (UniProt Q9Y2P5).
T5 sequence: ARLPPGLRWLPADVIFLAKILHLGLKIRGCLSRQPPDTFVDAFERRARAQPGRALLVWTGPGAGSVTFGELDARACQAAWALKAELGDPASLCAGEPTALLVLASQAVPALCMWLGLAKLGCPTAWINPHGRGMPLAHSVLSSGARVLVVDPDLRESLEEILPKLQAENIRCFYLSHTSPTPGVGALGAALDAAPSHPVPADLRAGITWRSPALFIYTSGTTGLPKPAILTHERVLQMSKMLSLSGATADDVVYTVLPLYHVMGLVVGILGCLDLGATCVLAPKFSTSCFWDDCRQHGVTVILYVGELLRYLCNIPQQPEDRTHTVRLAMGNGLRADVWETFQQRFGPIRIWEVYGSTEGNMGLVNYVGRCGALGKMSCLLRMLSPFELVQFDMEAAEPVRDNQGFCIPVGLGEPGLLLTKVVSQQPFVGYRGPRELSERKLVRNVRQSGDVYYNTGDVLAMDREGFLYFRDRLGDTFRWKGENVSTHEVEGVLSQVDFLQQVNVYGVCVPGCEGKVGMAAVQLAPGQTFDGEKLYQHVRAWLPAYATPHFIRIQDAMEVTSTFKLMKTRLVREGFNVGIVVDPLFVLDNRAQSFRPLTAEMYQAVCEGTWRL
The test is described as follows: co-IP; PLC/PRF/5 cells transfected with Flag-SLC27A5 and Myc-IGF2BP3 or their truncated forms; IP with anti-Myc or anti-Flag, IgG as control; RIPA lysate, magnetic beads, overnight at 4 °C.

Test [6] concerns the target T6, SLC27A5 (S296A), enzyme-inactivated mutant (human) (UniProt Q9Y2P5).
T6 sequence: T1 sequence with S296A
In words: co-IP; IP analysis of the SLC27A5 S296A mutant (Figure S2B); cells not told.

Consider “6xHis-IGF2BP3 (from UniProt O00425 1-579)”, for which the binding entry in test [1] was “binds”.

Consider “IGF2BP3 in HepG2 cells (from UniProt O00425 1-579)”, for which, in test [2], the binding result is “binds”. Regarding “IGF2BP3 KH1-2 (aa 195-344) (from UniProt O00425 195-344) (domain or fragment)”, in test [3], the binding entry is “binds”. Consider “IGF2BP2 (co-IP with SLC27A5, data not shown) (from UniProt Q9Y6M1 1-599)”, for which, in test [4], the binding entry was “binds weakly”.

As to “Myc-IGF2BP3 (insulin like growth factor 2 mRNA binding protein 3) (from UniProt O00425 1-579)”, the binding entry in test [5] and in test [3] was “binds” in each case. As for “IGF2BP3 (IP with SLC27A5 S296A, Figure S2B) (from UniProt O00425 1-579)”, the binding result in test [6] is “binds”.
